Test results published in PubChem BioAssay AID540276 (National Center for Advancing Translational Sciences (NCATS), 2011).
The campaign covered roughly 300,000 compounds. About 5,400 (1.8%) were called active. Inconclusive results, whose numbers are uncertain, are shown with a selection of clear calls. Calls follow the shape of the full dose curve; tested in HEK293 cells. Potencies beside an inconclusive call are fits to weak or partial responses and may not hold up.

Test: qHTS for inhibitors of binding or entry into cells for Marburg Virus
Conditions: Marburg virus pseudotyped entry inhibition, cell reporter; series mostly up to 37.8 µM
Potency is read from the fitted curve at half-maximal effect.

Row | Compound | Potency
1 | Cc1ccc(NC(=O)c2cccs2)cc1[N+](=O)[O-] | inactive
2 | Cc1ccc(NC(=O)CCc2c(C)nc3nc(C)nn3c2C)c(Cl)c1 | inconclusive: 0.562 µM [activator, full curve, poor fit]
3 | Cc1ccc(C)c(NC(=S)c2ccc3ccccc3n2)c1 | inconclusive: 1.26 µM [activator, partial curve, poor fit]
4 | COc1cc(OC)c(C2N(c3ccc(Cl)c(Cl)c3)C(=O)C3CCCN32)cc1OC (stereo not given) | inconclusive: 14.6 µM [inhibitor, single point]
5 | O=c1[nH]cnc2nn(-c3ccccc3)nc12 | inconclusive: 3.55 µM [activator, single point]
6 | CC(=O)Oc1ccccc1C(=O)O | inconclusive: 0.251 µM [inhibitor, full curve, poor fit]
7 | CCCn1c(SCC(=O)Nc2cccc(F)c2)nc(O)cc1=O | inconclusive: 0.708 µM [inhibitor, partial curve, poor fit]
8 | COc1ccc(-c2nc(SCC(=O)Nc3nccs3)c(-c3ccc(Cl)cc3)[nH]2)cc1 | inconclusive: 23.1 µM [inhibitor, single point]
9 | COc1ccccc1N(CC(O)Cn1ccnc1C)S(=O)(=O)c1ccc(C)cc1 (stereo not given) | inconclusive: 35.5 µM [inhibitor, single point]
10 | COc1ccc(N=C2NN=C(c3ccc4c(c3)OCCO4)CS2)cc1 | inactive
11 | COc1ccccc1NC(=O)CSC1=NC(=O)C(NC(C)=O)C(=O)N1 (stereo not given) | inactive
12 | CC1(C)Cc2cccc(OCC(=O)Nc3nccs3)c2O1 | inconclusive: 23.1 µM [inhibitor, single point]
13 | CN(CC(=O)NCCN1CCCCCC1)S(=O)(=O)c1cccc2nsnc12 | inconclusive: 3.26 µM [activator, single point]
14 | O=C(Nc1ccon1)c1cc2c(s1)CCCCCC2 | inconclusive: 0.651 µM [activator, partial curve]
15 | CCn1cc(/C=N/NC(=O)c2ccc3c(c2)OCO3)cn1 | inconclusive: 7.94 µM [activator, partial curve, poor fit]
16 | COc1cc2c(cc1OC)NC(=O)C2 | inconclusive: 3.16 µM [activator, single point]
17 | COc1cc(CN2CCN(C(=O)c3ccc(-c4ccccc4)cc3)CC2)cc(OC)c1OC | inconclusive: 1.41 µM [inhibitor, partial curve, poor fit]
18 | COc1ccc(-c2cc3c(nn2)-c2ccccc2C3=O)cc1 | inconclusive: 1.78 µM [inhibitor, full curve, poor fit]
19 | Fc1ccc(NC(=S)Nc2cccc(Cl)c2)cc1 | inactive
20 | CC1(C)C2CC=C(/C=N/NC(=O)c3ccccc3O)C1C2 (stereo not given) | inconclusive: 8.91 µM [inhibitor, partial curve, poor fit]
21 | O=C(Cc1cccs1)N(Cc1cccs1)C1(C(=O)NC2CCCC2)CCCCC1 | inactive
22 | COc1cc(CC(=O)Nc2cccc(C(F)(F)F)c2)cc(OC)c1OC | inconclusive: 18.4 µM [inhibitor, partial curve, poor fit]
23 | COc1ccc(Br)cc1CSC(=N)N | active: 12.6 µM
24 | CC(C)CN(CC(C)C)S(=O)(=O)c1cc([N+](=O)[O-])ccc1N1CCCCCC1 | inconclusive: 35.5 µM [inhibitor, single point]

Row | Compound | Potency
25 | CCCC(=O)Nc1nc2ccc(NC(=O)c3cccnc3)cc2s1 | inconclusive: 6.51 µM [inhibitor, full curve, poor fit]
26 | COC(=O)CSc1nnc(NC(=O)/C=C\c2ccc3c(c2)OCO3)s1 | inactive
27 | O=C(CCN1C(=O)C2C3CCC(C3)C2C1=O)Nc1cccc(Cl)c1 (stereo not given) | inactive
28 | O=C(Nc1ccc(F)cc1F)c1cc(Cl)sc1Cl | inconclusive: 1.26 µM [inhibitor, single point]
29 | CC(=O)Nc1nonc1-c1nc2ccccc2n1CCC(C)C | inconclusive: 10 µM [inhibitor, partial curve, poor fit]
30 | Cc1ccc(N(C(=O)Cn2nnc3ccccc32)C(C(=O)NCc2ccco2)c2ccc(C)o2)cc1 (stereo not given) | inconclusive: 3.16 µM [inhibitor, partial curve, poor fit]
31 | O=C1c2ccccc2C(=O)c2c(/C=C/N3CCCCC3)ccnc21 | inconclusive: 15.8 µM [inhibitor, single point]
32 | O=C(OCC(=O)N1CCN(C(=O)c2ccco2)CC1)c1cc(-c2ccco2)nc2ccccc12 | inconclusive: 16.4 µM [inhibitor, single point]
33 | c1ccc2nc(-c3ccc(N4CCOCC4)cc3)ccc2c1 | active: 2.31 µM
34 | CCN(Cc1ccccc1)S(=O)(=O)c1cc(C(=O)NCCCN(C)C)ccc1OC | inconclusive: 0.562 µM [inhibitor, full curve, poor fit]
35 | O=C(NCc1ccncc1)c1ccc(N2CCCC2)c([N+](=O)[O-])c1 | inactive
36 | CCCN(CCC(=O)Nc1cc(OC)cc(OC)c1)CC1CC1 | inconclusive: 35.5 µM [inhibitor, single point]
37 | Cn1c(CC(=O)NCCO)c(Sc2ccccc2)c2ccccc21 | inconclusive: 1.26 µM [activator, single point]
38 | Cc1ccc(C(C(=O)Nc2ccc3c(c2)OCO3)N(C)C(=O)/C=C\c2ccc3c(c2)OCO3)cc1 (stereo not given) | inconclusive: 20 µM [inhibitor, single point]
39 | CCOC(=O)Cc1cc(=O)[nH]c(/N=C(/NC(=O)c2ccccc2)Nc2ccccc2C(F)(F)F)n1 | inactive
40 | CC(=NNC(=O)COc1cccc(C)c1)c1cccnc1 | inconclusive: 31.6 µM [activator, single point]
41 | Cn1nc(CC(=O)Nc2ccc3c(c2)CCC3)c2ccccc2c1=O | inconclusive: 1.3 µM [inhibitor, full curve, poor fit]
42 | Cc1cccc2nc(C(F)(F)F)nc(=O)n12 | inactive
43 | CCOc1cc(NC(=O)C2CC2)c(OCC)cc1NC(=O)c1ccccn1 | inconclusive: 7.08 µM [inhibitor, partial curve, poor fit]
44 | Cc1ccc(C)c(N(CC(=O)NC2CCCCC2)C(=O)c2csnn2)c1 | inconclusive: 8.91 µM [inhibitor, partial curve]
45 | CC1CCN(CCOCCOc2ccc(Br)cc2Cl)CC1 | inconclusive: 5.62 µM [inhibitor, partial curve]
46 | COc1ccc(C(=O)NCCS(=O)(=O)N2CCCC2)cc1 | inactive
47 | COc1cc(OC)cc(C(=O)N/N=C\c2ccoc2)c1 | inconclusive: 3.98 µM [activator, partial curve, poor fit]
48 | COC(=O)C1=C(C)NC2=C(C1c1ccc(O)cc1)S(=O)(=O)c1ccccc12 (stereo not given) | inactive

Row | Compound | Potency
49 | O=C(O)c1ccc(NC(=O)c2ccccc2NC(=O)c2cccc(Br)c2)cc1 | inactive
50 | O=C(Nc1cccc(Cl)c1)c1ccc(Cn2cc(Cl)cn2)cc1 | inconclusive: 0.708 µM [inhibitor, partial curve, poor fit]
51 | COC(=O)C1=C(C)N(Cc2ccccc2)C(=S)NC1c1ccccc1 (stereo not given) | inconclusive: 0.0376 µM [activator, full curve, poor fit]
52 | Cc1nc2sc(C(=O)Nc3ccccc3)c(N)c2c(C)c1[N+](=O)[O-] | inactive
53 | COc1ccc(-c2ccc3c(N)c(C(=O)Nc4cccc(C)c4)sc3n2)cc1 | inactive
54 | COC(=O)c1cc(C(=O)NCc2ccccc2)c(=O)[nH]c1C | inconclusive: 0.562 µM [inhibitor, full curve, poor fit]
55 | O=S(=O)(c1cccc(-c2cn3cc(Cl)ccc3n2)c1)N1CCOCC1 | inconclusive: 6.51 µM [inhibitor, partial curve, poor fit]
56 | NCCCCN=C(N)N | inconclusive: 0.251 µM [inhibitor, full curve]
57 | O=C(CSc1n[nH]c(-c2ccccn2)n1)Nc1cccc(Cl)c1 | inconclusive: 7.94 µM [inhibitor, partial curve, poor fit]
58 | COc1ccccc1C(=O)NC(=O)Nc1ccc(-n2nc(C(F)(F)F)cc2C(F)(F)F)cc1 | inactive
59 | N#Cc1nc(Cc2cccc3ccccc23)oc1NCc1ccco1 | inactive
60 | COc1ccc(C2(O)CC3CCC(C2)N3c2cc(C)nc(-c3ccccc3)n2)cc1 (stereo not given) | active: 11.6 µM
61 | COc1ccc(NS(=O)(=O)c2cc(NC(=O)CNC(=O)c3ccc(C)s3)ccc2Cl)cc1 | inconclusive: 11.2 µM [inhibitor, partial curve, poor fit]
62 | COc1ccccc1C(OC(=O)c1cccs1)C(=O)NCc1ccco1 (stereo not given) | inactive
63 | CC1=NN(c2nc3ccccc3[nH]2)C(=O)C1Cc1ccccc1 (stereo not given) | inconclusive: 15.8 µM [inhibitor, partial curve, poor fit]
64 | COc1ccc(C)cc1NC(=O)c1nn(-c2ccccc2)cc1OC | inconclusive: 11.2 µM [inhibitor, partial curve, poor fit]
65 | COc1ccccc1Nc1c2c(nc3ccccc13)CCC2 | inconclusive: 7.08 µM [inhibitor, full curve, poor fit]
66 | O=C(Cn1cnc2ccccc21)Nc1ccc(SC(F)F)cc1 | active: 3.16 µM
67 | O=C(NCC(=O)N1CCCCCCC1)c1ccc(Br)o1 | inconclusive: 0.398 µM [inhibitor, single point]
68 | COc1cccc(C2CC(=O)N3CN(C4CCCCC4)CSC3=C2C#N)c1 (stereo not given) | inactive
69 | Nc1nnc(SCC(=O)N2CCN(c3cccc(Cl)c3)CC2)n1-c1ccccc1 | inconclusive: 25.9 µM [activator, single point]
70 | O=C(Nc1nnc(SCc2ccc(F)cc2)s1)c1cccnc1Cl | inactive

Of the compounds above, these contain fluorine:
Row | Compound | Potency
7 | CCCn1c(SCC(=O)Nc2cccc(F)c2)nc(O)cc1=O | inconclusive: 0.708 µM [inhibitor, partial curve, poor fit]
19 | Fc1ccc(NC(=S)Nc2cccc(Cl)c2)cc1 | inactive
22 | COc1cc(CC(=O)Nc2cccc(C(F)(F)F)c2)cc(OC)c1OC | inconclusive: 18.4 µM [inhibitor, partial curve, poor fit]
28 | O=C(Nc1ccc(F)cc1F)c1cc(Cl)sc1Cl | inconclusive: 1.26 µM [inhibitor, single point]
39 | CCOC(=O)Cc1cc(=O)[nH]c(/N=C(/NC(=O)c2ccccc2)Nc2ccccc2C(F)(F)F)n1 | inactive
42 | Cc1cccc2nc(C(F)(F)F)nc(=O)n12 | inactive
58 | COc1ccccc1C(=O)NC(=O)Nc1ccc(-n2nc(C(F)(F)F)cc2C(F)(F)F)cc1 | inactive
66 | O=C(Cn1cnc2ccccc21)Nc1ccc(SC(F)F)cc1 | active: 3.16 µM
70 | O=C(Nc1nnc(SCc2ccc(F)cc2)s1)c1cccnc1Cl | inactive

Part of the list above in order of SMILES length, rising:
Row | Compound | Potency
51 | COC(=O)C1=C(C)N(Cc2ccccc2)C(=S)NC1c1ccccc1 (stereo not given) | inconclusive: 0.0376 µM [activator, full curve, poor fit]
60 | COc1ccc(C2(O)CC3CCC(C2)N3c2cc(C)nc(-c3ccccc3)n2)cc1 (stereo not given) | active: 11.6 µM
58 | COc1ccccc1C(=O)NC(=O)Nc1ccc(-n2nc(C(F)(F)F)cc2C(F)(F)F)cc1 | inactive
